PubChem BioAssay AID504774 – Drosophila RNAi Screening Center | 2011

- Aim: 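Knock-downs that shift viability of MMS-exposed cells relative to untreated ones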 (primary screen)
- Cells: Drosophila Kc167 cells
- Knock-down reagent: long dsRNA against Drosophila genes, about 0.25 µg dsRNA per well
- Duration: about 6 days: 3 days knock-down, then 3 days with or without MMS
- Challenge: methyl methanesulphonate 0.004% (w/v) for 3 days after knock-down
- Measured: 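ATP-dependent luminescence as a measure of live cells in MMS-exposed wells, quantile normalised within each plate, with replicate values also given as a mean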
- Reading the numbers: mean viability with MMS: higher = more surviving cells after MMS
In all, the deposit lists about 23,000 reagents; this is an unselected part of those with a known target gene and a result. 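Values are quantile-normalised luminescence on an arbitrary scale; higher means more cells surviving MMS.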 Reagents against one gene are numbered here. Names joined by + are all predicted targets of the reagent. Not all columns of the deposit are shown.

mean viability with MMS, by gene and reagent
CG14835: #1 3.60e6
CG13577: #1 3.69e6
CAH14: #1 3.60e6; #2 3.62e6
shams: #1 3.53e6
CG9265: #1 3.57e6; #2 3.55e6
tos: #1 3.55e6
tal-1A + tal-2A + tal-AA + 1 more: #1 3.48e6
CG10651: #1 3.51e6
ms(3)K81: #1 3.40e6
ppk13: #1 3.55e6
Skp2: #1 3.52e6
hrg: #1 3.22e6
CG17780: #1 3.59e6
CG1092: #1 3.58e6
pan: #1 3.34e6; #2 3.51e6
CG4701: #1 3.34e6
CG5172: #1 3.33e6
Phlpp: #1 3.66e6; #2 3.43e6
Cow: #1 1.82e6; #2 3.70e6
l(1)10Bb: #1 3.19e6
HnRNP-K: #1 3.52e6; #2 3.52e6
Bug22: #1 3.56e6
CG13982: #1 3.48e6
MRG15: #1 3.61e6
CG5357 (retired record): #1 3.53e6
Atg10: #1 3.52e6
CG31752: #1 3.65e6

In a second layout: 11 of the entries above
| gene | reagent | mean viability with MMS |
| --- | --- | --- |
| tos | 1 | 3.55e6 |
| tal-1A + tal-2A + tal-AA + 1 more | 1 | 3.48e6 |
| CG10651 | 1 | 3.51e6 |
| ms(3)K81 | 1 | 3.40e6 |
| ppk13 | 1 | 3.55e6 |
| Skp2 | 1 | 3.52e6 |
| hrg | 1 | 3.22e6 |
| CG17780 | 1 | 3.59e6 |
| CG1092 | 1 | 3.58e6 |
| pan | 1 | 3.34e6 |
| pan | 2 | 3.51e6 |

Continued:
mean viability with MMS, by gene and reagent
CG32117: #1 3.58e6
LysRS: #1 3.50e6
MFS16: #1 3.74e6
CG9948: #1 3.60e6
Opbp: #1 3.43e6
Rhau: #1 3.41e6
CG5966: #1 3.55e6
smal: #1 3.51e6; #2 3.37e6; #3 3.57e6; #4 3.57e6; #5 3.29e6
CG14563: #1 3.47e6
CG15530: #1 3.74e6
Cyp4e2: #1 3.58e6
Gart: #1 3.53e6
CG13045: #1 3.44e6
mRpL32: #1 3.39e6
l(1)G0469: #1 3.45e6; #2 3.68e6
AdoR: #1 3.03e6
Mocs1: #1 3.74e6
Etf-QO: #1 3.56e6
Rpt3: #1 2.85e6
y: #1 3.41e6
Ugt301D1: #1 3.24e6
Eo: #1 3.49e6
Exn: #1 3.52e6; #2 3.54e6
CG6678: #1 3.49e6
CG31441: #1 3.60e6
scu: #1 3.58e6
Ir94h: #1 3.61e6
CG10345: #1 3.64e6
ix: #1 3.44e6
